From PMC4431850
These are yes or no findings as the source states them, for the method shown.

Sequences of proteins named here, by UniProt entry; tags and fusion partners are left off. Residues count along the entry.
UniProt Q96CX2, residues 27-131: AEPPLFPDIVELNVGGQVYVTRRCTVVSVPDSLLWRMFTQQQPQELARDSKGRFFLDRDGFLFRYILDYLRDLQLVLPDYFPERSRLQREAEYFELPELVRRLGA

Legend:
[1] = target: Cul3^NTD, N-terminal region (residues 20-381) of cullin 3 (UniProt Q13618); assay: condition: 55 μM (as tetramer) titrated into 25 μM Cul3^NTD; ITC; BTB domain (55 μM as tetramer) titrated into Cul3^NTD (25 μM); 22°C; 20 mM NaP, 200 mM NaCl, 2 mM DTT pH 7.5; single-binding site model; both purified
[2] = target: Cul3^NTD, N-terminal region (residues 20-381) of cullin 3 (UniProt Q13618); assay: SEC; BTB domain mixed with Cul3^NTD at 4°C in 20 mM NaP, 200 mM NaCl, 2 mM DTT pH 7.5; Superdex 200 10/30; SDS-PAGE of the peaks; both purified

With “BTB domain of KCTD12 (KCTD12^BTB) (from UniProt Q96CX2 27-131) (domain or fragment)” the binding [1] was “no binding” and the binding [2] was “no binding”.
